PubChem BioAssay AID686938 | Drosophila RNAi Screening Center | 2013

Assay: 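Fly genes required for calcium entry once internal stores are emptied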 (primary screen)
System: Drosophila S2R+ cells
Reagents: long dsRNA against Drosophila genes, about 0.25 µg dsRNA per well, roughly 10,000 cells
Duration: 5 days of knock-down before the calcium assay
Conditions: thapsigargin (SERCA pump blocker) to empty calcium stores; entry signal taken 4 min after adding it
Measurement: 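Duplicate raw fluo-4 intensities per well from a plate reader, at rest and four minutes after thapsigargin emptied calcium stores; entry-to-rest ratio filled for only some wells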
Reading the numbers: calcium entry signal: higher = stronger calcium signal after store depletion; resting calcium signal: higher = higher resting calcium signal
Units: calcium entry signal in fluorescence units; resting calcium signal in fluorescence units
Rule for the call: 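Called when the plate z-score of the entry-to-rest ratio, mean of duplicates, falls below −3; wells with low overall dye signal (Fmax z below −2) or more than five off-targets excluded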
Meaning of the calls: active = strongly reduced calcium entry; inactive = no strong reduction
The deposit covers about 23,000 reagents; this is an unselected part of those with a known target gene and a result. In the full data, 75 (0.33%) got an active call. 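Raw plate signals without normalisation; calls rest on plate z-scores that were not deposited; ratio present for only 364 wells.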 Unmarked entries are inactive. Not stated in the record: the dose of the treatment.

With knock-down of rk [DRSC03602], the screen gave calcium entry signal, replicate 1 = 4.83e7; calcium entry signal, replicate 2 = 2.95e7; resting calcium signal, replicate 1 = 2.14e7; resting calcium signal, replicate 2 = 1.44e7. Gbs-76A [DRSC11081] gave calcium entry signal, replicate 1 = 3.96e7; calcium entry signal, replicate 2 = 4.52e7; resting calcium signal, replicate 1 = 1.88e7; resting calcium signal, replicate 2 = 2.83e7. Syt12 [DRSC19359] gave calcium entry signal, replicate 1 = 3.67e7; calcium entry signal, replicate 2 = 5.00e7; resting calcium signal, replicate 1 = 1.85e7; resting calcium signal, replicate 2 = 2.30e7. After knock-down of CG42579 [DRSC20391] the results were calcium entry signal, replicate 1 = 3.27e7; calcium entry signal, replicate 2 = 4.01e7; resting calcium signal, replicate 1 = 1.75e7; resting calcium signal, replicate 2 = 1.94e7.

Sorted by “resting calcium signal, replicate 2” (high to low): some entries from above.
Gbs-76A [DRSC11081]: calcium entry signal, replicate 1 = 3.96e7; calcium entry signal, replicate 2 = 4.52e7; resting calcium signal, replicate 1 = 1.88e7; resting calcium signal, replicate 2 = 2.83e7
rk [DRSC03602]: calcium entry signal, replicate 1 = 4.83e7; calcium entry signal, replicate 2 = 2.95e7; resting calcium signal, replicate 1 = 2.14e7; resting calcium signal, replicate 2 = 1.44e7

The list goes on:
Against Grx1t [DRSC04530], the values are calcium entry signal, replicate 1 = 5.07e7; calcium entry signal, replicate 2 = 6.22e7; resting calcium signal, replicate 1 = 2.60e7; resting calcium signal, replicate 2 = 2.60e7. COX5B [DRSC02115] showed calcium entry signal, replicate 1 = 3.32e7; calcium entry signal, replicate 2 = 3.15e7; resting calcium signal, replicate 1 = 1.57e7; resting calcium signal, replicate 2 = 1.49e7. Pglym78 [DRSC16787] gave calcium entry signal, replicate 1 = 2.69e7; calcium entry signal, replicate 2 = 2.91e7; resting calcium signal, replicate 1 = 1.28e7; resting calcium signal, replicate 2 = 1.53e7. For CG3348 [DRSC15480], the values are calcium entry signal, replicate 1 = 3.55e7; calcium entry signal, replicate 2 = 5.34e7; resting calcium signal, replicate 1 = 1.81e7; resting calcium signal, replicate 2 = 2.20e7. After knock-down of be [DRSC19607], the screen gave calcium entry signal, replicate 1 = 3.32e7; calcium entry signal, replicate 2 = 3.98e7; resting calcium signal, replicate 1 = 1.66e7; resting calcium signal, replicate 2 = 1.82e7. Knock-down of be [DRSC19944] resulted in: calcium entry signal, replicate 1 = 4.15e7; calcium entry signal, replicate 2 = 2.84e7; resting calcium signal, replicate 1 = 2.20e7; resting calcium signal, replicate 2 = 1.41e7.

Against be [DRSC19945], the values are calcium entry signal, replicate 1 = 3.96e7; calcium entry signal, replicate 2 = 2.86e7; resting calcium signal, replicate 1 = 2.14e7; resting calcium signal, replicate 2 = 1.41e7. With knock-down of CG3419 (retired record) [DRSC04368] the results were calcium entry signal, replicate 1 = 4.20e7; calcium entry signal, replicate 2 = 4.57e7; resting calcium signal, replicate 1 = 2.17e7; resting calcium signal, replicate 2 = 2.08e7. After knock-down of CG3419 (retired record) [DRSC04369] the results were calcium entry signal, replicate 1 = 4.29e7; calcium entry signal, replicate 2 = 5.12e7; resting calcium signal, replicate 1 = 2.16e7; resting calcium signal, replicate 2 = 2.24e7. Against casp [DRSC07164], the values are calcium entry signal, replicate 1 = 3.49e7; calcium entry signal, replicate 2 = 3.45e7; resting calcium signal, replicate 1 = 1.59e7; resting calcium signal, replicate 2 = 1.74e7.
